At least one structure is not confirmed: it was looked up by name or label, or the drawing left a doubt.
Key:
[1] = system: Group II/III metabotropic glutamate receptors (mGluRs); assay: Cyclic AMP assay (ex vivo, forskolin-induced cAMP accumulation in rat cortical slices); format: cell-based, Sprague Dawley rat; conditions: for Group II/III Agonist: inhibits forskolin-induced cyclic AMP accumulation; for Group II/III Antagonist: inhibits the glutamate-caused decrease in forskolin-induced cyclic AMP accumulation
Protocol: The assay of cyclic AMP formation can be performed as described previously (Tovey et al., Clinica Chimica Acta, 56, 221-234, 1974). The assay can be modelled on the cyclic AMP assay kit available from Amersham, which in turn, is based on the assay created by Tovey et al. Briefly, samples are prepared from Sprague Dawley rat (225-250 g) cortical slices. Slices are incubated with the drug, and then challenged with forskolin to induce cyclic AMP release. Following termination of the reaction by boiling, the slices are homogenized and centrifuged. Samples of supernatant are then incubated for 2-3 hours with a known quantity of [^3H]cAMP and a binding protein. When the incubation is complete, the bound cyclic AMP is separated from the free cyclic AMP by centrifugation with charcoal. The resulting supernatant (containing free cyclic AMP) is then analyzed by liquid scintillation counting. The amount of unbound cyclic AMP can be calculated from a standard curve previously determined with various samples of free cyclic AMP.
Group II/III metabotropic glutamate receptors (mGluRs) are negatively coupled to adenylate cyclase, and agonists of these receptors lead to a decrease in intracellular cyclic AMP accumulation.
The assay has been modeled on the cyclic AMP assay kit available from Amersham. This kit, in turn, is based on the assay created by Tovey et al. (1974). Briefly, the samples were prepared from Sprague Dawley rat (225-250 g) cortical slices. Slices were incubated with the test compound (drug), and then challenged with forskolin to induce cyclic AMP release. Following termination of the reaction by boiling, the slices were homogenized and centrifuged. Samples of supernatant were then incubated for 2-3 hours with a known quantity of [^3H]cAMP and a binding protein. When the incubation was complete, the bound cyclic AMP was separated from the free cyclic AMP by centrifugation with charcoal. The resulting supernatant (containing free cyclic AMP) was then analyzed by liquid scintillation counting. The amount of unbound cyclic AMP was calculated from a standard curve previously determined with various samples of free cyclic AMP.
If the drugs tested inhibit forskolin-induced cyclic AMP accumulation, they are considered to be Group II/III agonists. Conversely, if they inhibit the decrease in forskolin-induced cyclic AMP accumulation caused by glutamate, they are considered to be Group II/III antagonists.

[2] = system: Group I metabotropic glutamate receptors (mGluRs); assay: Phosphatidylinositol assay (ex vivo, inositol phosphate accumulation in neonatal rat tissue slices); format: cell-based, Sprague Dawley rat; conditions: 45 minutes; for Group I Agonist: increase in intracellular free inositol phosphate accumulation; for Group I Antagonist: inhibits the inositol phosphate accumulation induced by ACPD
Protocol: Briefly, cross-chopped slices are prepared from neonatal Sprague Dawley rat tissue (age: p7-p14). The slices are pre-labelled with [^3H] myo-inositol. Following pre-labelling, the slices are incubated with the test drugs and standard (known Group I agonists i.e. ACPD) for a period of 45 minutes. The incubation is terminated by the addition of chloroform/methanol/HCl (100:200:2). The resulting mixture is separated into two phases by the addition of chloroform and distilled water. The aqueous fraction is applied to ion exchange columns, and inositol phosphates are eluted using 800 mM Ammonium Formate/100 mM Formic Acid. The eluent is then analyzed using liquid scintillation counting. The amount of inositol phosphate accumulation is expressed as a percentage of that induced by ACPD.
Group I metabotropic glutamate receptors (mGluRs) are positively coupled on inositol phosphate metabolism. Agonists at these receptors lead to an increase in intracellular free inositol phosphates, while antagonists inhibit the increase in intracellular free inositol phosphate induced by standard agonists (i.e. ACPD).
Cross-chopped slices were prepared from neonatal Sprague Dawley rat tissue (age: p7-p14). The slices were pre-labelled with [^3H] myo-inositol. Following pre-labelling, the slices were incubated with the test compounds and standard (known Group I agonists i.e. ACPD) for a period of 45 minutes. The incubation was terminated by the addition of chloroform/methanol/HCl (100:200:2). The resulting mixture was separated into two phases by the addition of chloroform and distilled water. The aqueous fraction was applied to ion exchange columns, and inositol phosphates were eluted using 800 mM Ammonium Formate/100 mM Formic Acid. The eluent was then analyzed using liquid scintillation counting. The amount of inositol phosphate accumulation was expressed as a percentage of that induced by ACPD.
If the drugs cause an increase in intracellular free inositol phosphate accumulation, they are considered to be Group I agonists. If they inhibit the increase in intracellular free inositol phosphate accumulation induced by ACPD, they are considered to be Group II antagonists.

| Compound | Group II/III Agonist [1] | Group II/III Antagonist [1] | Group I Agonist [2] | Group I Antagonist [2] |
| --- | --- | --- | --- | --- |
| N[C@@]1(C(=O)O)Cc2ccccc2[C@H]1CC(=O)O (relative stereo) [Cis-2 amino-2-carboxyindaneacetic acid (compound 8)] | No | Yes | No | Yes |
| N[C@]1(C(=O)O)Cc2ccccc2[C@H]1CC(=O)O (relative stereo) [Trans-2 amino-2-carboxyindaneacetic acid (compound 8)] | Yes | No | No | Yes |

Source: patent publication US7034055B1, “2-aminoindane analogs” (Prescient Neuropharma Inc., priority 1999, dated 2006)
